Laboratory results reported in publication PMC4870680.
No constants are given. Whether binding was seen depends on the method and setting. Binding seen in cells or lysates may run through a third protein. Some entries that bind do so weakly or less than the wild type.

Amino acid sequences for entries named in this document (tags omitted). A change or cut given only in a name is not applied to a line headed by its entry.
UniProt Q00613: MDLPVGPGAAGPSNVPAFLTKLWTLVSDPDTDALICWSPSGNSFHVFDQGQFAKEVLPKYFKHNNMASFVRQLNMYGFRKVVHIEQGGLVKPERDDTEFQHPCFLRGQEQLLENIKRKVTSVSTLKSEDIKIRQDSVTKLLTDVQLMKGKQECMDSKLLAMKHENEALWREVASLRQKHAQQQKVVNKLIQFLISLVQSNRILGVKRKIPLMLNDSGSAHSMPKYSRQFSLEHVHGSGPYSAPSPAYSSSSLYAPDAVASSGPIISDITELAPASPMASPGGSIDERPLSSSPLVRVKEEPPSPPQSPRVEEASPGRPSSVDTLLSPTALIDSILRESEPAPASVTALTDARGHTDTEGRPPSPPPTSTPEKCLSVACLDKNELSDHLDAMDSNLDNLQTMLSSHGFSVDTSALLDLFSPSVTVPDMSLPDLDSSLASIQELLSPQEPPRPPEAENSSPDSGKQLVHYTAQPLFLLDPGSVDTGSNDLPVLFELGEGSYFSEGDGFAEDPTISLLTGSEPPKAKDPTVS
UniProt Q09472: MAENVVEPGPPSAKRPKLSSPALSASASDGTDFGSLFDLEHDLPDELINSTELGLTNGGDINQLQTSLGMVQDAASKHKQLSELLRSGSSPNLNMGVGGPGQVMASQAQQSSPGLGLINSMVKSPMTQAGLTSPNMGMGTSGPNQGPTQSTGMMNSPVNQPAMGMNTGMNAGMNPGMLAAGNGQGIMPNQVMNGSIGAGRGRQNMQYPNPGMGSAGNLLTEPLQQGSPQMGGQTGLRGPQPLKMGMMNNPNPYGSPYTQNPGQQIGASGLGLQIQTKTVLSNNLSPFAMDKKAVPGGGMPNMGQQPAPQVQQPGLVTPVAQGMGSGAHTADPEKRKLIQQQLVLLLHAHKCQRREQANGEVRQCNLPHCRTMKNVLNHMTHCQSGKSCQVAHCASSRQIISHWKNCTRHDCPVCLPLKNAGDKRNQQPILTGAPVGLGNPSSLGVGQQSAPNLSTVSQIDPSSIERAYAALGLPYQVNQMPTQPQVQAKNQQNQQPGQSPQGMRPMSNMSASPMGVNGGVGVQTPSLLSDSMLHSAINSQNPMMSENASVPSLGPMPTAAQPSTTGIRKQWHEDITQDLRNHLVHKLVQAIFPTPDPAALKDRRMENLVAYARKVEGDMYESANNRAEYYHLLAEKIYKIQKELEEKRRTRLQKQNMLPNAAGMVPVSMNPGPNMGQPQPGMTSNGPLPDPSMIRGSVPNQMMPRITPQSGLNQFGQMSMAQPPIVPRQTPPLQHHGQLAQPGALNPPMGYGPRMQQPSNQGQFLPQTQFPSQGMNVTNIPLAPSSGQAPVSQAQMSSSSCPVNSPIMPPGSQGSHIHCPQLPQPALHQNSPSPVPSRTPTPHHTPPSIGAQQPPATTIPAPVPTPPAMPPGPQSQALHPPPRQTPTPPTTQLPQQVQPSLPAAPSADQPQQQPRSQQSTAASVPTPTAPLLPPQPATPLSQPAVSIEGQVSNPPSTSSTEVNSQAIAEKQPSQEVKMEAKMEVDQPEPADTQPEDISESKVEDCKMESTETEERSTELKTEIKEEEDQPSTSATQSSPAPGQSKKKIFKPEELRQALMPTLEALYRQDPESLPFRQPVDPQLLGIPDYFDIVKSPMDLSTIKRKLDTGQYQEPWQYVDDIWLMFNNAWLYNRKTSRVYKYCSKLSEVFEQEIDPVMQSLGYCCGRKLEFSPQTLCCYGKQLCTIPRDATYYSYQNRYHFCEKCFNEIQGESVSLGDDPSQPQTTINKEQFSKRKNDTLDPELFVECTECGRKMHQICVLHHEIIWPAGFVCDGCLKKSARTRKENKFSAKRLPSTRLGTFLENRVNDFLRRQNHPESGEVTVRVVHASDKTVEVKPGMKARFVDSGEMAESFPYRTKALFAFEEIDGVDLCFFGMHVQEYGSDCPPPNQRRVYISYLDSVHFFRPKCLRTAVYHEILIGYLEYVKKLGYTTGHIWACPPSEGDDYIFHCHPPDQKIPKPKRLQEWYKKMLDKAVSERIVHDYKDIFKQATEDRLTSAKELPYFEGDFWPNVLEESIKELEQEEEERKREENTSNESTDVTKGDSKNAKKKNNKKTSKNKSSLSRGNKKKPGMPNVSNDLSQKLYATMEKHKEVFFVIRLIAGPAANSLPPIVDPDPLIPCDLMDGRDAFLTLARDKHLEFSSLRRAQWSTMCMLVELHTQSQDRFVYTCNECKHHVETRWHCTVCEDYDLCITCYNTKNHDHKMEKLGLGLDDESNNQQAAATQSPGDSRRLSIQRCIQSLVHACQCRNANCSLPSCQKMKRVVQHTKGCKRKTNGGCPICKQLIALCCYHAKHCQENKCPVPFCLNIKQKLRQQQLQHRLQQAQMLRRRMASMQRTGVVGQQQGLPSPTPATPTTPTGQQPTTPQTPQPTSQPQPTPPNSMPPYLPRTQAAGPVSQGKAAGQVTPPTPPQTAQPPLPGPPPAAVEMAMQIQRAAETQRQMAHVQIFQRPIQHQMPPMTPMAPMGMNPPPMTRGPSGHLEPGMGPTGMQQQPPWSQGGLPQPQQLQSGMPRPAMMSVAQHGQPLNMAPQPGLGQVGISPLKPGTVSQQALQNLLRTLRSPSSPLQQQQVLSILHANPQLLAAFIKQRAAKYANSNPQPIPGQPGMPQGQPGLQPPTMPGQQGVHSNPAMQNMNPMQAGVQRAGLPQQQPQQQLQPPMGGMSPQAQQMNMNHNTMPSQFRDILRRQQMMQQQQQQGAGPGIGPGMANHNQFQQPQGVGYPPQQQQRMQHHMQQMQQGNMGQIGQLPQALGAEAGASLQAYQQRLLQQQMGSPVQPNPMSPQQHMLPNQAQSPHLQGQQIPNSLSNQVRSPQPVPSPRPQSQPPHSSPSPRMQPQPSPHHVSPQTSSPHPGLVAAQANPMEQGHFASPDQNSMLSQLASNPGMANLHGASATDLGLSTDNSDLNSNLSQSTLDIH
UniProt P50750: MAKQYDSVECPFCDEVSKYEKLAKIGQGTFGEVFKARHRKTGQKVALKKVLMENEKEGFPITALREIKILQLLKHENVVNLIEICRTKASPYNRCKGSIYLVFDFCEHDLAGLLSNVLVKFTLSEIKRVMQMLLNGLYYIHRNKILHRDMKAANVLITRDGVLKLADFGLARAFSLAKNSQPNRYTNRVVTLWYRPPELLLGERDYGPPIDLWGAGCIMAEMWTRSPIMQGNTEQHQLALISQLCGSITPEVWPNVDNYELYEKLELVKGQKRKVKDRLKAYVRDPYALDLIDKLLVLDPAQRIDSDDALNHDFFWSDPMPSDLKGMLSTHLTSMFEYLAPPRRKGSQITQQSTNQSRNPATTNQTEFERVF

Target: heat shock factor 1 (human (endogenous in J-Lat 10.6)) (UniProt Q00613)
Assay: co-IP; J-Lat 10.6 cells treated with 200 uM salubrinal for 2 h, alone or with 5 uM KRIBB11 or 2 uM C646; lysis in 20 mM Tris pH 7.5, 150 mM NaCl, 1% Triton X-100; HSF1 antibody and protein A/G plus-agarose, 4 °C overnight; IgG as negative control; Western blot

Row | Substance | binding
1 | p300 (from UniProt Q09472 1-2414) | binds
2 | positive transcription elongation factor b (from UniProt P50750 1-372; O60563 1-726) (complex) | binds
